Measurements reported in article PMC8384837.
The list shows a part of the results. For some of these results: At the low end of the ranking the order means little.

Biological target: T1, PUM1 PUF domain R1-QFR R2-VFQ R7-NPG S863Q + R864F + Q867R + N899V + Y900F + S1079N + N1080P + E1083G (Homo sapiens) (UniProt Q14671)
T1 sequence: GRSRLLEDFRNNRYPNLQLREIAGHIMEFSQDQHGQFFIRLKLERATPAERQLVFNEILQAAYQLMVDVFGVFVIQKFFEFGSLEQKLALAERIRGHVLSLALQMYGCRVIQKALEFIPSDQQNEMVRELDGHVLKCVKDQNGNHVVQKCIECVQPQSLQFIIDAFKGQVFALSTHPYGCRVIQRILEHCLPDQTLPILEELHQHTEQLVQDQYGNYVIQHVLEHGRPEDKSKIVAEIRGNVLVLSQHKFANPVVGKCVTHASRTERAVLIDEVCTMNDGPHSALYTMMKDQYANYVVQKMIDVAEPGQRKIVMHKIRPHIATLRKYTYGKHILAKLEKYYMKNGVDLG
Details: yeast three-hybrid, YBZ-1, SC-Leu-His + 0.5 mM 3-AT, 4 days

Sequence	binding signal (log2 enrichment (interaction score))
GGCUAGAACUAGUGGAUCCCCCGGCGCCCGGCGGCUCGAGCCCGGGUAAGCAUAAUUAGUCUGCAUGCCGCCGGGCGCCAUGCCUGCAGGUCGACUCUAGAAAACAUG	-0.2
GGCUAGAACUAGUGGAUCCCCCGGCGCCCGGCGGCUCGAGCCCGGGUAAGUUGCGAAAGUCUGCAUGCCGCCGGGCGCCAUGCCUGCAGGUCGACUCUAGAAAACAUG	-0.55
GGCUAGAACUAGUGGAUCCCCCGGCGCCCGGCGGCUCGAGCCCGGGUAAGUUUAGAACGUCUGCAUGCCGCCGGGCGCCAUGCCUGCAGGUCGACUCUAGAAAACAUG	-0.99
GGCUAGAACUAGUGGAUCCCCCGGCGCCCGGCGGCUCGAGCCCGGGUAAGCAGAUAUAGUCUGCAUGCCGCCGGGCGCCAUGCCUGCAGGUCGACUCUAGAAAACAUG	-0.83
GGCUAGAACUAGUGGAUCCCCCGGCGCCCGGCGGCUCGAGCCCGGGUAAGUUAACGGUGUCUGCAUGCCGCCGGGCGCCAUGCCUGCAGGUCGACUCUAGAAAACAUG	-0.84
GGCUAGAACUAGUGGAUCCCCCGGCGCCCGGCGGCUCGAGCCCGGGUAAGUUAGAUCCGUCUGCAUGCCGCCGGGCGCCAUGCCUGCAGGUCGACUCUAGAAAACAUG	-0.89
GGCUAGAACUAGUGGAUCCCCCGGCGCCCGGCGGCUCGAGCCCGGGUAAGUGAACGGCGUCUGCAUGCCGCCGGGCGCCAUGCCUGCAGGUCGACUCUAGAAAACAUG	4.1

Reprinted at random: 2 records from the list.
Sequence	binding signal (log2 enrichment (interaction score))
GGCUAGAACUAGUGGAUCCCCCGGCGCCCGGCGGCUCGAGCCCGGGUAAGUUAGAUCCGUCUGCAUGCCGCCGGGCGCCAUGCCUGCAGGUCGACUCUAGAAAACAUG	-0.89
GGCUAGAACUAGUGGAUCCCCCGGCGCCCGGCGGCUCGAGCCCGGGUAAGCAUAAUUAGUCUGCAUGCCGCCGGGCGCCAUGCCUGCAGGUCGACUCUAGAAAACAUG	-0.2

Biological target: T2, PUM1 PUF domain R1-QFR R2-VFQ R7-NPG S863Q + R864F + Q867R + N899V + Y900F + S1079N + N1080P + E1083G (UniProt Q14671)
T2 sequence: T1 sequence
Details: yeast three-hybrid, YBZ-1, SC-Leu-His + 0.5 mM 3-AT, 4 days

Sequence	binding signal (log2 enrichment (interaction score))
GGCUAGAACUAGUGGAUCCCCCGGCGCCCGGCGGCUCGAGCCCGGGUAAGUCCUAAUCGUCUGCAUGCCGCCGGGCGCCAUGCCUGCAGGUCGACUCUAGAAAACAUG	-5.63
GGCUAGAACUAGUGGAUCCCCCGGCGCCCGGCGGCUCGAGCCCGGGUAAGUACCCUAAGUCUGCAUGCCGCCGGGCGCCAUGCCUGCAGGUCGACUCUAGAAAACAUG	-6.04
GGCUAGAACUAGUGGAUCCCCCGGCGCCCGGCGGCUCGAGCCCGGGUAAGUGGAAAAUGUCUGCAUGCCGCCGGGCGCCAUGCCUGCAGGUCGACUCUAGAAAACAUG	< -5.74
GGCUAGAACUAGUGGAUCCCCCGGCGCCCGGCGGCUCGAGCCCGGGUAAGACUAAUAUGUCUGCAUGCCGCCGGGCGCCAUGCCUGCAGGUCGACUCUAGAAAACAUG	-3.02
GGCUAGAACUAGUGGAUCCCCCGGCGCCCGGCGGCUCGAGCCCGGGUAAGUUUAAGUGGUCUGCAUGCCGCCGGGCGCCAUGCCUGCAGGUCGACUCUAGAAAACAUG	-6
GGCUAGAACUAGUGGAUCCCCCGGCGCCCGGCGGCUCGAGCCCGGGUAAGCUGUCCUCGUCUGCAUGCCGCCGGGCGCCAUGCCUGCAGGUCGACUCUAGAAAACAUG	-3.4
GGCUAGAACUAGUGGAUCCCCCGGCGCCCGGCGGCUCGAGCCCGGGUAAGUUAAAGGUGUCUGCAUGCCGCCGGGCGCCAUGCCUGCAGGUCGACUCUAGAAAACAUG	-6.35
GGCUAGAACUAGUGGAUCCCCCGGCGCCCGGCGGCUCGAGCCCGGGUAAGGGUAAUAAGUCUGCAUGCCGCCGGGCGCCAUGCCUGCAGGUCGACUCUAGAAAACAUG	< -6.36
GGCUAGAACUAGUGGAUCCCCCGGCGCCCGGCGGCUCGAGCCCGGGUAAGCCUGAGCUGUCUGCAUGCCGCCGGGCGCCAUGCCUGCAGGUCGACUCUAGAAAACAUG	-5.62
GGCUAGAACUAGUGGAUCCCCCGGCGCCCGGCGGCUCGAGCCCGGGUAAGUCGAACAAGUCUGCAUGCCGCCGGGCGCCAUGCCUGCAGGUCGACUCUAGAAAACAUG	-5.66
GGCUAGAACUAGUGGAUCCCCCGGCGCCCGGCGGCUCGAGCCCGGGUAAGUAUUCGGAGUCUGCAUGCCGCCGGGCGCCAUGCCUGCAGGUCGACUCUAGAAAACAUG	< -6.05
GGCUAGAACUAGUGGAUCCCCCGGCGCCCGGCGGCUCGAGCCCGGGUAAGUUGGUGAAGUCUGCAUGCCGCCGGGCGCCAUGCCUGCAGGUCGACUCUAGAAAACAUG	< -5.16
GGCUAGAACUAGUGGAUCCCCCGGCGCCCGGCGGCUCGAGCCCGGGUAAGUACACGGCGUCUGCAUGCCGCCGGGCGCCAUGCCUGCAGGUCGACUCUAGAAAACAUG	-5.38
GGCUAGAACUAGUGGAUCCCCCGGCGCCCGGCGGCUCGAGCCCGGGUAAGGUGACACCGUCUGCAUGCCGCCGGGCGCCAUGCCUGCAGGUCGACUCUAGAAAACAUG	< -3.33
GGCUAGAACUAGUGGAUCCCCCGGCGCCCGGCGGCUCGAGCCCGGGUAAGCUUGAGAAGUCUGCAUGCCGCCGGGCGCCAUGCCUGCAGGUCGACUCUAGAAAACAUG	-5.65
GGCUAGAACUAGUGGAUCCCCCGGCGCCCGGCGGCUCGAGCCCGGGUAAGUGUCUGAAGUCUGCAUGCCGCCGGGCGCCAUGCCUGCAGGUCGACUCUAGAAAACAUG	< -6.4
GGCUAGAACUAGUGGAUCCCCCGGCGCCCGGCGGCUCGAGCCCGGGUAAGUGGAAGUGGUCUGCAUGCCGCCGGGCGCCAUGCCUGCAGGUCGACUCUAGAAAACAUG	-5.69
GGCUAGAACUAGUGGAUCCCCCGGCGCCCGGCGGCUCGAGCCCGGGUAAGUUUAACGCGUCUGCAUGCCGCCGGGCGCCAUGCCUGCAGGUCGACUCUAGAAAACAUG	-5.77
